Taken from: PubChem BioAssay AID1159578 (Peter MacCallum Cancer Centre, 2015)
Purpose: 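Knock-downs that alter how fast lymphatic endothelial cells migrate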 (primary screen). Cell system: human lymphatic endothelial cells. Knock-down reagent: siRNA pool against human genes, 40 nM. Time to read-out: 48 h after transfection. Detection: 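Cells stained with dye and imaged after a scratch; covered wound area and nuclei counted, duplicates averaged, migration set against mock wells and turned into a robust z-score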. Direction: migration robust z-score: higher = faster migration into the scratch; nuclei per well: higher = more cells in the well. Call rule: 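Pools averaging fewer than 3300 nuclei are never called; remaining pools count as changed when migration robust z lies outside -2 to 2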. Calls: active = migration changed; inactive = no migration change, or too few cells.
Here is an unselected part of about 18,000 reagents. Of all reagents, about 1,030 (5.7%) were called active. 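Inactive calls also include pools with fewer than 3300 nuclei, whose migration was not assessed.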 The raw values are shown without normalisation. Further read-outs or replicates are left out here.

VTA1
- migration robust z-score: -1.26
- migration class with cell-count check: migration z between -2 and 2; enough cells
- nuclei per well, duplicate mean: 6242
- call: inactive

TMOD2
- migration robust z-score: -0.43
- migration class with cell-count check: migration z between -2 and 2; enough cells
- nuclei per well, duplicate mean: 5777
- call: inactive

SDSL
- migration robust z-score: -1.09
- migration class with cell-count check: migration z between -2 and 2; enough cells
- nuclei per well, duplicate mean: 4850
- call: inactive

GPBAR1
- migration robust z-score: -0.24
- migration class with cell-count check: migration z between -2 and 2; enough cells
- nuclei per well, duplicate mean: 5118
- call: inactive

ZIC5
- migration robust z-score: 1.05
- migration class with cell-count check: migration z between -2 and 2; enough cells
- nuclei per well, duplicate mean: 4872
- call: inactive

2 entries from above, arranged by “migration robust z-score”, low to high.
SDSL
- migration robust z-score: -1.09
- migration class with cell-count check: migration z between -2 and 2; enough cells
- nuclei per well, duplicate mean: 4850
- call: inactive

GPBAR1
- migration robust z-score: -0.24
- migration class with cell-count check: migration z between -2 and 2; enough cells
- nuclei per well, duplicate mean: 5118
- call: inactive

The list goes on:
RABEP2
- migration robust z-score: -1.77
- migration class with cell-count check: migration z between -2 and 2; enough cells
- nuclei per well, duplicate mean: 5694
- call: inactive

AGRP
- migration robust z-score: -0.56
- migration class with cell-count check: migration z between -2 and 2; enough cells
- nuclei per well, duplicate mean: 6004
- call: inactive

LBH
- migration robust z-score: 0.38
- migration class with cell-count check: migration z between -2 and 2; enough cells
- nuclei per well, duplicate mean: 5138
- call: inactive

CLTC
- migration robust z-score: -0.94
- migration class with cell-count check: migration z between -2 and 2; enough cells
- nuclei per well, duplicate mean: 6046
- call: inactive

MIR1-1HG
- migration robust z-score: 1.15
- migration class with cell-count check: migration z between -2 and 2; enough cells
- nuclei per well, duplicate mean: 5802
- call: inactive

IFT43
- migration robust z-score: 0.71
- migration class with cell-count check: migration z between -2 and 2; enough cells
- nuclei per well, duplicate mean: 5696
- call: inactive

PLPP2
- migration robust z-score: -0.31
- migration class with cell-count check: migration z between -2 and 2; enough cells
- nuclei per well, duplicate mean: 3821
- call: inactive

IQCJ
- migration robust z-score: -1.36
- migration class with cell-count check: migration z between -2 and 2; enough cells
- nuclei per well, duplicate mean: 7422
- call: inactive

PNPLA2
- migration robust z-score: 0.36
- migration class with cell-count check: migration z between -2 and 2; enough cells
- nuclei per well, duplicate mean: 5036
- call: inactive
